Where a name gives a salt, the structure may show the parent alone. Hit rate of the full screen: of about 1,200 compounds, about 50 (4%) showed activity. Cut-off read from the data, not from the text of the source: all actives reach 1.3 or more but so do some inactives. The list shows a part of the results.
tested on: Lgr5 (MarsCy1-Lgr5-EGFP, U2OS); experiment: cell-surface Lgr5 expression (SCi1 fluorescence, background-subtracted) relative to WT DMSO (fold of DMSO control); higher = more Lgr5 at the plasma membrane, active = hit call of the paper; conditions: U2OS MarsCy1-Lgr5-EGFP stable; treatment time: overnight; 16 µM; library: Johns Hopkins Clinical Compound Library

| Compound | cell-surface Lgr5 expression |
| --- | --- |
| OC[C@H]1O[C@H]([S-])[C@H](O)[C@@H](O)[C@@H]1O.[Au+] [Aurothioglucose] | inactive: 1.03 |
| Cc1cc(=O)oc2cc(O)ccc12 [Hymecromone (4-Methylumbelliferone Free Acid)] | inactive: 1.06 |
| [Br-].[Na+] [Sodium bromide] | inactive: 0.934 |
| O=S(=O)(O)c1ccc2c(/N=N/c3ccc(S(=O)(=O)O)c4ccccc34)c(O)c(S(=O)(=O)O)cc2c1 [Amaranth] | inactive: 1.02 |
| [K+].[O]=[Mn](=[O])(=[O])[O-] [Potassium permanganate] | inactive: 1.31 |
| c1ccc(C2CN3CCSC3=N2)cc1 (configuration not stated) [Tetramisole] | inactive: 1.2 |
| Cc1scc2c1N(C(=O)CN1CCN(C)CC1)c1ccccc1NC2=O [Telenzepine] | active: 1.3 |
| Cc1ccc2c(Br)cc(Br)c(O)c2n1 [Broquinaldol (5,7-dibromo-8-hydroxy-quinaldine)] | inactive: 1.1 |
| CC(=O)OCC(COC(C)=O)OC(C)=O [Triacetin] | inactive: 0.869 |
| NCCC[C@H](N)C(=O)O [L-Ornithine] | inactive: 0.718 |
| CC[C@H]1OC(=O)[C@H](C)[C@@H](O[C@H]2C[C@@](C)(OC)[C@@H](O)[C@H](C)O2)[C@H](C)[C@@H](O[C@@H]2O[C@H](C)C[C@H](N(C)C)[C@H]2O)[C@](C)(O)C[C@@H](C)/C(=N\OCOCCOC)[C@H](C)[C@@H](O)[C@]1(C)O [Roxithromycin] | inactive: 0.978 |
| CC(=O)N[C@@H](CC(C)C)C(=O)O [N-Acetyl-L-leucine] | inactive: 1.16 |
| [I-].[Na+] [Sodium iodide] | inactive: 1.13 |
| COc1cc(S(=O)(=O)O)ccc1O [Potassium guaiacolsulfonate] | inactive: 1.11 |
| COc1cc(S(=O)(=O)O)ccc1O [Guaiacolsulfonic acid potassium salt] | inactive: 1.19 |
| O=C1CN2Cc3c(ccc(Cl)c3Cl)N=C2N1 [Anagrelide hydrochloride] | inactive: 0.898 |
| CC(C)NCC(O)COc1ccc(COCCOC(C)C)cc1 (configuration not stated) [Bisoprolol fumarate] | inactive: 1.09 |
| CCN(Cc1ccncc1)C(=O)C(CO)c1ccccc1 (configuration not stated) [Tropicamide] | inactive: 0.289 |
| CCN(CC)CC#CCOC(=O)C(O)(c1ccccc1)C1CCCCC1 (configuration not stated) [Oxybutynin chloride] | inactive: 0.687 |
| OC(CCN1CCCCC1)(c1ccccc1)C1CC2C=CC1C2 (configuration not stated) [Biperiden hydrochloride] | inactive: 0.801 |
| COc1ccc(C(=O)NCc2cccnc2)cc1C(=O)NCc1cccnc1 [Picotamide] | inactive: 1.03 |
| COc1cc2nc(N3CCN(C(=O)c4ccco4)CC3)nc(N)c2cc1OC [Prazosin] | inactive: 0.986 |
| CCn1cc(C(=O)O)c(=O)c2cnc(N3CCNCC3)nc21 [Pipemidic acid] | inactive: 1.15 |
| [O]=[Mg] [Magnesium oxide] | inactive: 0.953 |

| Compound | cell-surface Lgr5 expression |
| --- | --- |
| N=C(N)N1Cc2ccccc2C(O)C1 (configuration not stated) [4-Hydroxydebrisoquin] | inactive: 1.07 |
| CCC(C)C(C(=O)OCC[N+](C)(CC)CC)c1ccccc1 (configuration not stated) [Valethamate bromide] | inactive: 1.1 |
| C#CCN(C)Cc1ccccc1 [Pargyline (N-Methyl-N-Propargylbenzylamine)] | inactive: 0.981 |
| COc1ccc2cc(CCC(C)=O)ccc2c1 [Nabumetone] | active: 1.32 |
| O=C(O)CCC(=O)OC[C@@H](NC(=O)C(Cl)Cl)[C@H](O)c1ccc([N+](=O)[O-])cc1 [Chloramphenicol succinate sodium salt] | inactive: 0.813 |
| CCCCCC(C)N (configuration not stated) [Tuaminoheptane (2-aminoheptane)] | inactive: 1.06 |
| CCN(CC)CCNC(=O)c1cc(S(C)(=O)=O)ccc1OC [Tiapride] | inactive: 1.28 |
| CC1(C)OC(=O)NC1=O [Dimethadione (5,5 dimethyl-2,4oxazolidinedione)] | inactive: 1.28 |
| N=C(N)NCC1COC2(CCCCC2)O1 (configuration not stated) [Guanadrel sulfate] | inactive: 1.02 |
| Cn1nnnc1SCC1=C(C(=O)O)N2C(=O)[C@@H](NC(=O)[C@H](O)c3ccccc3)[C@H]2SC1 [Cefamandole] | inactive: 1.1 |
| CCCC(=O)O[C@]1(C(=O)COC(C)=O)CC[C@H]2[C@@H]3C[C@H](F)C4=CC(=O)C=C[C@]4(C)[C@@]3(F)[C@@H](O)C[C@@]21C | active: 1.57 |
| Nc1ccc(C(=O)NCC(=O)O)cc1 [Aminohippuric acid (p-aminohippuritic acid)] | inactive: 0.677 |
| Nc1ccc(S(=O)(=O)c2ccc(N)cc2)cc1 | inactive: 0.776 |
| Nc1ccc(S(=O)(=O)c2ccc(N)cc2)cc1 [Dapsone (4-Aminophenyl sulfone)] | inactive: 1.25 |
| OC[C@H]1O[C@@H](Oc2ccc(O)cc2)[C@H](O)[C@@H](O)[C@@H]1O [Arbutin] | inactive: 0.885 |
| [Br-].[Br-].[Mg+2] [Magnesium bromide] | inactive: 0.496 |
| N[C@H]1C(O)O[C@H](CO)[C@@H](O)[C@@H]1O (some centres not stated) [Glucosamine] | inactive: 1.06 |
| O=P([O-])([O-])[O-].O=P([O-])([O-])[O-].[Ca+2].[Ca+2].[Ca+2] [Calcium phosphate tribasic] | inactive: 0.836 |
| C=C1C[C@H]2[C@@H]3C=C(C)C4=CC(=O)CC[C@]4(C)[C@H]3CC[C@]2(C)[C@@]1(OC(C)=O)C(C)=O [Melengestrol acetate] | active: 1.58 |
| O[C@@H]1[C@H](O)[C@@H](O)C=C[C@H]1O [Conduritol] | inactive: 1.03 |
| CC(=O)Oc1cccc2c1C(=O)c1c(OC(C)=O)cc(C(=O)O)cc1C2=O [Diacerein] | inactive: 0.994 |
| Cc1ncc(CSSCc2cnc(C)c(O)c2CO)c(CO)c1O [Pyrithioxin] | inactive: 1.16 |
| CN1CCCCC1CCN1c2ccccc2Sc2ccc([S+](C)[O-])cc21 (configuration not stated) [Mesoridazine besylate] | inactive: 0.596 |

A few values from the results shown:
cell-surface Lgr5 expression with N=C(N)NCC1COC2(CCCCC2)O1 (configuration not stated) [Guanadrel sulfate] is entered as inactive: 1.02
cell-surface Lgr5 expression with N[C@H]1C(O)O[C@H](CO)[C@@H](O)[C@@H]1O (some centres not stated) [Glucosamine] is entered as inactive: 1.06

— the supplement of paper PMC4683952
